For four molecules, binding results are on record in paper PMC7160454.

No constants are given. Whether binding was seen depends on the method and setting. Some results given as binding are weak or reduced against the parent protein; the word gives no strength. Tags and fused reporters may be left off the sequences shown.

Assay [1] concerns the target T1, GST-mMGP (mouse matrix Gla protein, residues 20-104, without the signal peptide) (mouse) (UniProt P19788).
T1 sequence: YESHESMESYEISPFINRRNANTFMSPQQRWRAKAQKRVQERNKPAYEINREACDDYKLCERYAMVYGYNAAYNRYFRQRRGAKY
Put plainly: pull-down; immobilized GST-mMGP (10 ug) with recombinant mBMP-4 or mBMP-2 (50 ng) in BC150 buffer with 0.1% NP-40 and 1 mM beta-mercaptoethanol, 4 °C, 1 h; eluted in 0.3% sarkosyl, western blot; both purified.

In assay [2] the target is T1, GST-mMGP (mouse matrix Gla protein, residues 20-104, without the signal peptide) (mouse). Put plainly: condition: only with the anti-MGP antibody at the same molar ratio as GST-mMGP; pull-down; GST-mMGP and mBMP-4 incubated without or together with the anti-MGP antibody (goat polyclonal) at the same molar ratio as GST-mMGP; both purified.
The target is the same in assay [3]. Put plainly: pull-down; GST-mMGP and mBMP-4 incubated without or together with the anti-MGP antibody (goat polyclonal) at the same molar ratio as GST-mMGP; both purified.
The target of assay [4] is T2, Gal4-mMGP (mMGP (20-104) fused to GAL4) (mouse) (UniProt P19788).
T2 sequence: T1 sequence
Put plainly: two-hybrid; mammalian two-hybrid: pGal4-mMGP (10 ng) and pVP16-mBMP-4 or pVP16-mBMP-2 (150 ng) with 5 x GAL4-LUC reporter and Renilla control, Lipofectamine 2000, luciferase read-out.

B1: recombinant mBMP-4 (mouse bone morphogenetic protein-4) (ligand, UniProt P21275 293-408)
chain: SPKHHPQRSRKKNKNCRRHSLYVDFSDVGWNDWIVAPPGYQAFYCHGDCPFPLADHLNSTNHAIVQTLVNSVNSSIPKACCVPTELSAISMLYLDEYDKVVLKNYQEMVVEGCGCR
As to B1, the results for the binding result in assay [1], in assay [2] and in assay [3] were “binds”, “no binding” and “binds”, respectively.

B2: VP16-mBMP-4 (secreted form of mBMP-4, residues 293-408, fused to the VP16 activation domain) (domain or fragment, UniProt P21275 293-408)
chain: B1 chain
For the molecule B2, in assay [4], the binding result is given as “binds”.

B3: recombinant mBMP-2 (mouse bone morphogenetic protein-2) (ligand, UniProt P21274 281-394)
chain: QAKHKQRKRLKSSCKRHPLYVDFSDVGWNDWIVAPPGYHAFYCHGECPFPLADHLNSTNHAIVQTLVNSVNSKIPKACCVPTELSAISMLYLDENEKVVLKNYQDMVVEGCGCR
Regarding B3, the binding entry in assay [1] is “binds”.

B4: VP16-mBMP-2 (secreted form of mBMP-2, residues 281-394, fused to the VP16 activation domain) (domain or fragment, UniProt P21274 281-394)
chain: B3 chain
Take B4: the binding entry in assay [4] is on record as “binds”.
